Reference: PubChem BioAssay AID1347426 (Functional Genomics Laboratory (NCATS/FGL), 2020)
Hit rate of the full screen: of about 31,000 sequences, about 1,400 (4.5%) were called active.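 The calls were made as follows: active = median seed-adjusted z-score above 1 or below -1; inactive = the rest.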 The list shows a part of the results.

experiment: Novel Modifiers of Survival Motor Neuron (SMN) Protein: Gene Identification via Genome-wide siRNA Screen; conditions: HEK293T SMN2-luciferase reporter, siRNA knockdown, 72 h; actives lie on both sides;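 also: luminescence tracks full-length SMN protein made from the SMN2 reporter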
Method in brief: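 HEK293T cells stably expressing an SMN2 splicing/cDNA-luciferase reporter were reverse-transfected with a druggable-genome siRNA library and read by luminescence at 72 hours; hits defined by MAD score above 1.0 or below -1.0.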

| Sequence | median seed-adjusted z-score |
| --- | --- |
| GCAUACCUGAGAUCUAUGATT against RGS1 | inactive: 0.329 |
| GGUUGGGAAUGUAUCGUGATT against TTC8 | inactive: 0 |
| GGCUGAGCAUUAUAAGAAATT against KRT6A | inactive: -0.146 |
| AAAGCACAGUGUUAAAUGATT against TAC1 | inactive: 0.0499 |
| CGGGAAGUGUAAGAAGCAATT against ZNF341 | inactive: 0.356 |
| GGACUCCAACGGCUUCUCATT against SYT3 | inactive: 0.221 |
| GGAAGCUAAUAAAAACAUUTT against RGS20 | inactive: -0.34 |
| CUGGUGGUCCGAAACCAUATT against ACP6 | inactive: -0.631 |
| GUAAGACCCAUGUCAGAUATT against KIF21A | inactive: 0.53 |
| GAGUGAUCCUUUCCAUGAATT against PTPRE | inactive: 0.619 |
| CCAGGAGAGUAAAGACUCATT against MRPS28 | inactive: -0.022 |
| CGAUGUCUACUGUUGUGGATT against KCTD14 | inactive: -0.166 |
| CACCGUCACCUUUAACCAATT against STAB1 | inactive: 0.264 |
| GAUCCUCACAGAAUUUGAATT against TRIM31 | inactive: -0.167 |
| GCCUCGCUGUGAUCUGAUUTT against CACNG6 | inactive: -0.0499 |
| GGAGAUUGCUGGACAUAUATT against PUM1 | inactive: 0.109 |
| CGCUCUACCAGACCUCCUATT against GSX1 | inactive: 0.677 |
| GCUUCUCGAUGUGAACGAATT against RUNX1T1 | inactive: 0.181 |
| AGCUCCACCUGACACCUUUTT against POLR3E | inactive: -0.55 |
| GACCUAAAGUUGUGGGAGATT against SMARCE1 | inactive: 0 |
| GACCUCUACCGAGAUGUGATT against ZNF789 | inactive: 0.0534 |
| GGCAGAUGUUUUUCACGCATT against CAND1 | inactive: 0.157 |

| Sequence | median seed-adjusted z-score |
| --- | --- |
| GCUUUACAGAGGUUCCGAATT against SKIV2L2 | inactive: 0.642 |
| GACAUAAUUAGAUUACGAATT against STK3 | inactive: 0.108 |
| GAAAGAACCUUUGAAUACATT against ZNF382 | inactive: 0.601 |
| GGCUUGAAAUCCCACAAAATT against ZNF175 | inactive: -0.0194 |
| GUAGGGACCUUAGAAAGGATT against DGAT2L6 | inactive: -0.528 |
| GAACCGUGAUGGUAUUAUATT against MYLPF | inactive: 0.348 |
| GCUCUAUUCCCUCAAGUUUTT against KIFC3 | inactive: 0.54 |
| GCCUCUUCUUAGUUGAUGATT against RTN4 | inactive: -0.0191 |
| GGACUUUUGCGAGCAAGCATT against TSHZ1 | inactive: 0.526 |
| AGUUAGAGGUAGCAUUAUATT against FZD5 | inactive: -0.129 |
| GUACCUCAAUUUAAUAUCUTT against UGCGL2 | inactive: -0.456 |
| GGAAAUCAGCAUACUGGAATT against SLC24A6 | inactive: -0.792 |
| CAGCAACAAGAGCACCAGATT against SLC22A6 | inactive: 0.135 |
| CGAUGUGCAUUGAAGCGAATT against BMP2K | inactive: -0.51 |
| GGAUCUCAAGUAUACCAUUTT against SND1 | inactive: -0.0434 |
| GAACAACACCAACAUAAGATT against SMOC1 | inactive: 0.0453 |
| GGACAACACGUACAUCGUATT against SULF2 | inactive: -0.109 |
| CACGUACUGUGAAUACAGATT against KIF21A | inactive: 0.53 |
| CCUUGACCCAGUCUAUUUATT against SCARA3 | inactive: -0.05 |
| GAAGUAAGACAGUAGAUGATT against SENP7 | inactive: 0.547 |
| GAGUAGUAUUUCUUUUCUATT against NEU1 | inactive: -0.425 |
| CCAUUGUGGUUAUUAUGCUTT against TLR10 | inactive: -0.363 |

2 records drawn at random from those above:

| Sequence | median seed-adjusted z-score |
| --- | --- |
| GAGUAGUAUUUCUUUUCUATT against NEU1 | inactive: -0.425 |
| CAGCAACAAGAGCACCAGATT against SLC22A6 | inactive: 0.135 |

As entered above.
Under median seed-adjusted z-score, GCCUCUUCUUAGUUGAUGATT against RTN4 shows inactive: -0.0191
Under median seed-adjusted z-score, CCAGGAGAGUAAAGACUCATT against MRPS28 shows inactive: -0.022
Under median seed-adjusted z-score, GGAUCUCAAGUAUACCAUUTT against SND1 shows inactive: -0.0434
Under median seed-adjusted z-score, GGUUGGGAAUGUAUCGUGATT against TTC8 shows inactive: 0
Under median seed-adjusted z-score, CGGGAAGUGUAAGAAGCAATT against ZNF341 shows inactive: 0.356
Under median seed-adjusted z-score, GCUUCUCGAUGUGAACGAATT against RUNX1T1 shows inactive: 0.181
Under median seed-adjusted z-score, GAACAACACCAACAUAAGATT against SMOC1 shows inactive: 0.0453

Next part:

| Sequence | median seed-adjusted z-score |
| --- | --- |
| GCAUGAUGAUUAUUUCCAATT against FLJ12529 | inactive: 0.852 |
| CCUUAGGAAUGAAAUCGCUTT against SIPA1L1 | inactive: 0.0925 |
| CAUGAGAUACGAUACACUATT against TRMT6 | inactive: 0.069 |
| CAUUGUCGUUGGUGCAGUATT against ADCY10 | inactive: -0.573 |
| CAAACUAGAGAGAAAGUCUTT against ZNF556 | inactive: 0 |
| CAACCACCCUCACAUCAUUTT against NUAK2 | inactive: -0.0601 |
| CCAAGCGAGAAGUACCUAATT against APC | inactive: 0.154 |
| GCUUAUGACUGCACCAACATT against FPGS | inactive: -0.853 |
| GAAAUGUCAUAACUGCAAATT against CRYM | inactive: -0.373 |
| CAAAGGAGCUAAACACCUUTT against UGT2B7 | inactive: 0.313 |
| CGAUGACUCCUCCGACUUUTT against PTPN3 | inactive: -0.535 |
| GUAGAGAUGUCAUUACCUATT against GTF3C2 | inactive: 0.32 |
| CCGUCAAGGUCGUCAUACATT against NTSR1 | active: -1.1 |
| CCUCUGAAGCUACAACAGATT against IRF1 | inactive: 0.831 |
| GGCUCGUCGUUGUAUCACATT against BMPR1A | inactive: 0.797 |
| GAAGCUACGUUGACUAUUUTT against HRC | active: 1.06 |
| GGAAUCUGCUGAUCUUGUUTT against ERAL1 | inactive: -0.46 |
| AAGUGGACUGCAGCAUUUATT against SPINK7 | inactive: -0.409 |
| GCAGUGUCCCAUCGUCUUATT against NSUN2 | inactive: -0.707 |
| AGCUCAAGAAGUACACCAATT against CHST12 | inactive: 0 |
| CUGCAGUACUGUUGCCUGATT against PRIC285 | inactive: 0 |
| GGAACUGUUUAUAAGGGUATT against RAF1 | inactive: 0 |

| Sequence | median seed-adjusted z-score |
| --- | --- |
| AAAAGUACUUUGUCGGUUATT against ALOX5AP | inactive: -0.0169 |
| GGCCCUAUGUAUAUGCUUUTT against AK3 | inactive: -0.0313 |
| GGAACAUCUUGUAGACAUUTT against RNF135 | inactive: 0.581 |
| UCAUGACUGUUGCUACAAATT against PLA2G2A | inactive: 0.809 |
| CCGUGUUUCUCAUCGAGAUTT against ABP1 | inactive: -0.241 |
| GCAUUGUCCUGGUUCCCAATT against CYP27A1 | inactive: -0.391 |
| GAUUGACCGUGCAAAAUCATT against PI4K2B | inactive: 0.0345 |
| GACUCGAUUUUACAGGAAATT against OGN | inactive: 0.0889 |
| GAAUGGAAGUGGAUGCAGATT against ZMYND19 | inactive: 0.369 |
| GAAUACUUCGAGAACAUAATT against MME | inactive: 0.129 |
| CCUCUUAUAUCAAGCAGCATT against FOXF1 | inactive: -0.148 |
| GGCCCUGAGUAAUCGCUUATT against CEBPB | inactive: -0.748 |
| GUACUACCGUUUCAACGAATT against MMP14 | inactive: -0.0145 |
| GGAGCAGUCACUUACAGAATT against PINK1 | inactive: 0.192 |
| GACCAGAACAUGUACCCUATT against SHROOM4 | inactive: 0.825 |
| CCUUGUUCUUCUACCUAUATT against SYT14 | inactive: 0.0794 |
| CGAUGAUCAAUUACGAAAATT against PPP2R3C | inactive: 0.295 |
| AAGUGACUCUAGUCGUUUATT against REM2 | inactive: 0.109 |
| AUGUAAACAUUUACCAGAATT against CASZ1 | inactive: 0.263 |
| GAGAGACAGAAGUACGAAATT against P4HA1 | inactive: -0.293 |
| GCACAGUCUGAAGACGAGATT against ZNF783 | inactive: 0.284 |
| GGAAAGAGAUCUACCGCAATT against MYST1 | inactive: 0 |

| Sequence | median seed-adjusted z-score |
| --- | --- |
| GCGAGUUGCUGCUAGUGCATT against B3GNT6 | inactive: 0.00618 |
| GACGAAGAGUGGUCAGUGATT against CECR1 | inactive: 0.00187 |
| GAAAUCAGCCUAUGGUUUATT against NME2 | inactive: -0.0728 |
| CCCUUAAUCUACAAUAUCATT against PHTF1 | inactive: 0.0129 |
| CUCGAUACCUUAGAAGAUATT against PDE4B | inactive: 0.546 |
| CAACUACACUGUCAACUACTT against DTX2 | inactive: 0.0597 |
| GGCGGAUUGACAGAAGUAUTT against CDC42SE2 | inactive: 0.381 |
| AGACAGUGAUUGCCGUCAATT against E2F2 | inactive: -0.382 |
| GAUCUUUCCUUCUUAAAGATT against EGFR | inactive: 0.263 |
| AGAGCCCACUAAUGAAGCATT against CHRM4 | inactive: -0.856 |
| GAUUGUCAUUGGAAGUAUUTT against TACR3 | inactive: 0.0904 |
| GCUCGACUAUCCAAAAUCATT against COX10 | inactive: 0.339 |
| GCACAACUCGUCACUCUUUTT against TLX3 | inactive: 0.0771 |
| CCAUCACUUUUGACCCGUUTT against USP19 | inactive: 0.47 |
| GCCUCUUCGUCAUCUCCAATT against MS4A10 | inactive: -0.24 |
| GCAUGGAAGUUGCAACUGUTT against KCND2 | inactive: -0.245 |
| GGAAGUACAUUUACAGUCUTT against CNGA3 | inactive: -0.125 |
| GACCAACAAGUUCAACUAUTT against SERPINE1 | inactive: 0.18 |
| UCAAAGAUCUGAAAUCUGATT against ANXA11 | inactive: 0.21 |
